{
  "source": "PubChem BioAssay AID504834",
  "about": "(National Center for Advancing Translational Sciences (NCATS), 2011)",
  "note": "About 22,000 (6.9%) of roughly 320,000 compounds were called active. The shares of active, inactive and inconclusive entries below differ from those in the screen. The call rests on the fitted dose curve; in most records, active means well fitted inhibition curve with a large enough effect; inconclusive means small, poorly fitted or top-dose-only effect, or another doubt; inactive means no such curve, though single readings can be large or run the other way. Potencies beside an inconclusive call are fits to weak or partial responses and may not hold up. On the % scale 0 is the no-effect control and ±100 the full control effect; potency means the concentration at half of the fitted maximal effect.",
  "data": [
    {"experiment": "Primary qHTS for delayed death inhibitors of the malarial parasite plastid, 96 hour incubation", "settings": "P. falciparum luciferase reporter growth; series mostly up to 28.7 µM; activity change, negative = inhibition: at the top concentration", "how_it_was_run": "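Cell-based qHTS: luciferase-tagged P. falciparum in erythrocytes (2% hematocrit, 0.05% parasitemia final) incubated with compounds for 96 hours, 37 C, 5% CO2; luciferase detection reagent then added and luminescence measured.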", "values": [
      {"smiles": "O=C(COc1ccccc1Br)NCCC1=CCCCC1", "Potency": "inconclusive: 14.7 µM [inhibitor, single point]"},
      {"smiles": "O=C(N/N=C/C=C/c1ccccc1)c1cccs1", "activity change, negative = inhibition": "inactive: 6.26%"},
      {"smiles": "O=C(c1cc2ccccc2c(=O)o1)N1CCCc2ccccc21", "Potency": "inconclusive: 1.65 µM [inhibitor, partial curve, poor fit]"},
      {"smiles": "COc1cccc(CNC(=O)c2ccc(COc3ccccc3)cc2)c1", "Potency": "inconclusive: 13.1 µM [inhibitor, partial curve, poor fit]"},
      {"smiles": "CCN1C(=O)[C@@H]2[C@@H](c3ccc(-c4ccc(OC)cc4)cc3)N3CCC[C@@]3(C(=O)OC)[C@@H]2C1=O", "Potency": "active: 11.7 µM"},
      {"smiles": "COc1ccc(CNc2ccc3c(c2)ncn3-c2ccccc2OC)cc1", "Potency": "active: 13.1 µM"},
      {"smiles": "CCN(CC)C(=O)CSc1nc2ccc(NC(=O)CSc3nccn3C)cc2s1", "Potency": "inconclusive: 18.5 µM [inhibitor, single point]"},
      {"smiles": "CCOc1ccc(S(=O)(=O)NCC2CCCO2)c2ccccc12", "note": "(configuration not stated)", "activity change, negative = inhibition": "inactive: 348%"},
      {"smiles": "COC(=O)c1sc2ncn(CC(=O)NCCc3ccc(OC)c(OC)c3)c(=O)c2c1C", "activity change, negative = inhibition": "inactive: 6.22%"},
      {"smiles": "COc1ccc(N(CC(=O)N2CCN(c3ccccc3)CC2)S(=O)(=O)c2ccc(C)cc2)cc1", "Potency": "inconclusive: 18.5 µM [inhibitor, single point]"},
      {"smiles": "COc1ccc(CC(=O)NCc2n[nH]c(=S)n2-c2ccc(Br)cc2)cc1", "Potency": "inconclusive: 18.5 µM [inhibitor, single point]"},
      {"smiles": "C=C(C)CNC(=S)N/N=C/c1ccco1", "Potency": "inconclusive: 18.5 µM [inhibitor, single point]"},
      {"smiles": "O=C(C1CCCN1S(=O)(=O)c1ccc(Cl)c(Cl)c1)N1CCOCC1", "note": "(configuration not stated)", "Potency": "inconclusive: 9.28 µM [inhibitor, partial curve, poor fit]"},
      {"smiles": "COc1ccc(NS(=O)(=O)c2cc3c(cc2C)N(C(C)=O)CCO3)cc1", "Potency": "inconclusive: 0.0052 µM [inhibitor, partial curve, poor fit]"},
      {"smiles": "Cc1ccc(S(=O)(=O)NCC2CCCO2)cc1[N+](=O)[O-]", "note": "(configuration not stated)", "Potency": "inconclusive: 18.5 µM [inhibitor, single point]"},
      {"smiles": "CC(Sc1nnnn1C1CC1)C(=O)Nc1cccc(S(=O)(=O)N2CCOCC2)c1", "note": "(configuration not stated)", "Potency": "inconclusive: 16.5 µM [inhibitor, single point]"},
      {"smiles": "CCOc1ccc(OCCOCCN2CCc3ccccc3C2)cc1", "activity change, negative = inhibition": "inactive: 62.8%"},
      {"smiles": "COCCn1c(-c2ccc(C)cc2)nc2oc3cc(OC)ccc3c(=O)c2c1=O", "Potency": "inconclusive: 4.65 µM [inhibitor, partial curve]"},
      {"smiles": "COCc1ccc(-c2c(-c3ccsc3)sc3ccccc23)cc1", "Potency": "inconclusive: 16.5 µM [inhibitor, single point]"},
      {"smiles": "COc1ccc(NC(=O)CS(=O)CC(=O)Nc2ccc(NC(C)=O)cc2)cc1", "note": "(configuration not stated)", "Potency": "inconclusive: 13.1 µM [inhibitor, single point]"},
      {"smiles": "NS(=O)(=O)c1ccc(N/N=C/c2ccccc2C(=O)O)c([N+](=O)[O-])c1", "activity change, negative = inhibition": "inactive: 3.24%"},
      {"smiles": "O=C(CCCOC(=O)c1ccc(O)cc1O)c1ccccc1", "activity change, negative = inhibition": "inactive: -19.1%"},
      {"smiles": "Cn1c(=O)c2c(nc(Br)n2Cc2ccccc2Cl)n(C)c1=O", "Potency": "inconclusive: 8.28 µM [inhibitor, partial curve]"},
      {"smiles": "CC(C)(C)c1cc(NS(=O)(=O)c2cccs2)no1", "activity change, negative = inhibition": "inactive: 27.9%"},
      {"smiles": "CCOC(=O)C1CCN(C(=O)CCc2nnc3ccc(N4CCN(C)CC4)nn23)CC1", "Potency": "inconclusive: 13.1 µM [inhibitor, single point]"},
      {"smiles": "Brc1ccc(C2=Nc3ccccc3C(c3ccncc3)=NN2)cc1", "Potency": "inconclusive: 18.5 µM [inhibitor, single point]"},
      {"smiles": "NS(=O)(=O)c1cccc(NC(=O)C2CC(=O)N(Cc3ccco3)C2)c1", "note": "(configuration not stated)", "activity change, negative = inhibition": "inactive: 19%"},
      {"smiles": "CCCCn1c(N)c(N(CCC(C)C)C(=O)c2cc(Cl)nc3ccccc23)c(=O)[nH]c1=O", "Potency": "inconclusive: 14.7 µM [inhibitor, single point]"},
      {"smiles": "CCCCc1ccc(NC(=S)N2CCN(c3ncccn3)CC2)cc1", "activity change, negative = inhibition": "inactive: 6.23% [at 5.75 µM]"},
      {"smiles": "COc1ccc(C(C)=O)cc1CC(=O)Nc1cccc(S(=O)(=O)N2CCOCC2)c1", "Potency": "active: 7.38 µM"},
      {"smiles": "COc1ccc(C2=NN(C(=O)CSc3ncccn3)C(c3cccc(OC)c3OC)C2)cc1", "note": "(configuration not stated)", "Potency": "inconclusive: 18.5 µM [inhibitor, single point]"},
      {"smiles": "CCOC(=O)c1cc(C)n(-c2ccc(Cl)cc2)c1C", "Potency": "inconclusive: 8.28 µM [inhibitor, partial curve, poor fit]"},
      {"smiles": "Cc1ccc(S(=O)(=O)NCc2ccccc2)cc1C(=O)N1CCN(S(=O)(=O)c2ccccc2)CC1", "Potency": "inconclusive: 10.4 µM [inhibitor, single point]"},
      {"smiles": "O=C(CSc1nnnn1C1CCCC1)NCc1cccs1", "Potency": "inconclusive: 6.57 µM [inhibitor, partial curve]"},
      {"smiles": "CC(C)c1ccc(NC(=O)C(=O)c2cn(CC(=O)N3CCCCC3)c3ccccc23)cc1", "Potency": "inconclusive: 14.7 µM [inhibitor, single point]"},
      {"smiles": "COC(=O)c1ccc(CNC(=O)c2c3c(nc4ccccc24)CCN(Cc2ccccc2)C3)cc1", "Potency": "inconclusive: 10.4 µM [inhibitor, single point]"},
      {"smiles": "Cc1cc(Cl)ccc1NC(=O)c1ccc2c(c1)CCN2S(C)(=O)=O", "activity change, negative = inhibition": "inactive: -5.12%"},
      {"smiles": "Cn1c(=O)[nH]c(=O)c2c1nc(N1CCOCC1)n2CC(O)COc1ccc2ccccc2c1", "note": "(configuration not stated)", "Potency": "active: 6.57 µM"},
      {"smiles": "CCN(CCO)Cc1csc2cc(C)ccc12", "Potency": "inconclusive: 1.31 µM [inhibitor, partial curve, poor fit]"},
      {"smiles": "O=C(COc1ccccc1)N1CCCCCCC1", "activity change, negative = inhibition": "inactive: 0.75%"},
      {"smiles": "COC(=O)Cc1csc(Nc2ccccc2Cl)n1", "Potency": "inconclusive: 13.1 µM [inhibitor, single point]"},
      {"smiles": "CC(C)C12CN3CC(C(C)C)(CN(C1)C3c1ccc([N+](=O)[O-])o1)C2=O", "note": "(configuration not stated)", "activity change, negative = inhibition": "inactive: 27.8%"},
      {"smiles": "Fc1ccccc1CSc1ncn[nH]1", "activity change, negative = inhibition": "inactive: -2.47%"},
      {"smiles": "O=c1/c(=C\\c2ccc(O)cc2)sc2nc(-c3ccccc3)c(-c3ccccc3)n12", "Potency": "inconclusive: 0.294 µM [inhibitor, partial curve, poor fit]"},
      {"smiles": "Cc1nn(C)c(C(=O)N2CCc3ccccc32)c1Br", "Potency": "inconclusive: 18.5 µM [inhibitor, single point]"},
      {"smiles": "Cc1cc(-c2ccccc2)cc(-c2ccccc2)[n+]1C", "Potency": "active: 0.928 µM"},
      {"smiles": "COc1ccc(NC(=S)NCCc2ccc(S(N)(=O)=O)cc2)c(OC)c1", "Potency": "inconclusive: 0.928 µM [inhibitor, full curve, poor fit]"},
      {"smiles": "COc1ccccc1N(C)S(=O)(=O)c1ccc(C(=O)Nc2ccc3nc(C)sc3c2)cc1", "Potency": "inconclusive: 10.4 µM [inhibitor, single point]"},
      {"smiles": "COc1ccc(N2CCN(C(=O)c3oc4ccccc4c3NC(=O)CCc3cc(OC)no3)CC2)cc1", "Potency": "inconclusive: 10.4 µM [inhibitor, single point]"},
      {"smiles": "COc1ccccc1NC(=O)c1ccc(-n2cncn2)nc1", "Potency": "inconclusive: 1.04 µM [inhibitor, partial curve, poor fit]"},
      {"smiles": "CC1CCN(CC(=O)Nc2ccccc2C(=O)NC2CC2)CC1", "Potency": "inconclusive: 0.208 µM [inhibitor, partial curve, poor fit]"},
      {"smiles": "COc1cccc(NC(=O)C(c2ccccc2)N2CCN(CC(=O)N3CCOCC3)CC2)c1", "note": "(configuration not stated)", "Potency": "inconclusive: 13.1 µM [inhibitor, single point]"},
      {"smiles": "COc1ccc(/C=N/Nc2ncnc3c2[nH]c2ccc(C)cc23)c(OC)c1OC", "Potency": "inconclusive: 8.28 µM [inhibitor, partial curve]"},
      {"smiles": "CCOC(=O)C(=CNc1nc(-c2ccccc2)c(C(=O)Nc2ccc(-c3ccccc3)cc2)s1)C(=O)OCC", "Potency": "active: 14.7 µM"},
      {"smiles": "CCOC(=O)c1nn(-c2ccccc2F)c2nc(-c3ccco3)c(C#N)c(=O)n12", "Potency": "inconclusive: 11.7 µM [inhibitor, single point]"},
      {"smiles": "COc1cccc(CNC(=O)C2CCC(CNS(=O)(=O)c3cccc4cccnc34)CC2)c1", "note": "(configuration not stated)", "Potency": "inconclusive: 18.5 µM [inhibitor, single point]"},
      {"smiles": "C=CCNS(=O)(=O)CC12CCC(CC1=O)C2(C)C", "note": "(configuration not stated)", "Potency": "inconclusive: 0.0041 µM [inhibitor, full curve, poor fit]"},
      {"smiles": "N#CCCn1cc(/C=C(\\C#N)c2nc3ccccc3s2)c(-c2ccc(F)cc2)n1", "Potency": "inconclusive: 18.5 µM [inhibitor, single point]"},
      {"smiles": "COc1ccc(/C=C2/C(=O)N(CC3CCCO3)C(=S)N2C)c(OC)c1", "note": "(configuration not stated)", "activity change, negative = inhibition": "inactive: -0.0026% [at 5.75 µM]"},
      {"smiles": "CC(=O)COc1c(-c2ccco2)oc2ccccc2c1=O", "Potency": "inconclusive: 1.47 µM [inhibitor, partial curve, poor fit]"},
      {"smiles": "Cc1ccc(S(=O)(=O)N2CCN(C(=O)c3n[nH]c4ccccc34)CC2)cc1", "Potency": "active: 11.7 µM"},
      {"smiles": "CS(=O)(=O)c1ccc(Cl)c(NC(=O)CCl)c1", "Potency": "inconclusive: 18.5 µM [inhibitor, single point]"},
      {"smiles": "COc1ccc2cc(C(=O)C3CCCN(Cc4cccc(C)n4)C3)ccc2c1", "note": "(configuration not stated)", "Potency": "inconclusive: 14.7 µM [inhibitor, single point]"},
      {"smiles": "CCCc1nc(SCC(=O)Nc2ccc(S(=O)(=O)N(C)C)cc2)c2ccccc2n1", "Potency": "inconclusive: 10.4 µM [inhibitor, single point]"},
      {"smiles": "O=C(CSc1nnc(CNC(=O)c2cccs2)o1)NC1CCCC1", "Potency": "inconclusive: 7.38 µM [inhibitor, partial curve, poor fit]"},
      {"smiles": "O=C(c1ccccc1)C1CCc2occc2C1=O", "note": "(configuration not stated)", "activity change, negative = inhibition": "inactive: -2.31%"},
      {"smiles": "Cc1cc(C)c(OCCOCCN2CCN(C)CC2)c(Cl)c1", "Potency": "inconclusive: 13.1 µM [inhibitor, partial curve, poor fit]"}
    ]}
  ]
}
